Laboratory results: PubChem BioAssay AID1224830 (NIAID, 2016)
The whole screen tested about 18,000 reagents; shown is a part drawn at random. In the full data, about 2,900 (16%) are marked active. 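Calls are made per well; low scores hint the gene aids the LPS response, high scores that it dampens it.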 Repeated entries: four replicate wells of each siRNA pool.

Screen: 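Regulators of TLR4 signalling towards TNF-alpha in macrophage-like cells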 (primary screen)
Cell system: human THP-1 monocytic leukaemia cells, TNF dual-luciferase reporter clone, PMA-differentiated to macrophage-like cells
Reagents: siRNA pool against human genes, 50 nM
Time to read-out: LPS for 4 h, given about 3 days after siRNA transfection
Challenge: bacterial LPS (TLR4 ligand), 10 ng/ml
Measured: 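TNF firefly reporter luminescence divided by renilla, normalised to the plate median, then turned into a robust z-score for each replicate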
Reading the numbers: TNF reporter robust z-score: higher = stronger TNF reporter response to LPS
Active means: 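a well is active when its z-score exceeds 2.8 or falls below -1.5; control wells carry no call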

gene knocked down | TNF reporter robust z-score | Outcome
RBM38 | 1.25 | inactive
RBM38 | -0.6 | inactive
RBM38 | -1.08 | inactive
RBM38 | -0.12 | inactive
QTRT1 | -1.08 | inactive
QTRT1 | -0.27 | inactive
QTRT1 | -0.58 | inactive
QTRT1 | -0.14 | inactive
SLC6A12 | -0.15 | inactive
SLC6A12 | 0.19 | inactive
SLC6A12 | -0.53 | inactive
SLC6A12 | 0.29 | inactive
HNRNPM | -1.52 | active
HNRNPM | -0.8 | inactive
HNRNPM | -1.25 | inactive
HNRNPM | -1.81 | active
PTPRG | -0.95 | inactive
PTPRG | 0.06 | inactive
PTPRG | 2.17 | inactive
PTPRG | 0.23 | inactive
AMELY | -0.84 | inactive
AMELY | 0.19 | inactive
AMELY | -0.72 | inactive
AMELY | 0.08 | inactive
UNC50 | 1.81 | inactive
UNC50 | 0.53 | inactive
UNC50 | -0.82 | inactive
UNC50 | 0.76 | inactive
OR2H2 | 0.2 | inactive
OR2H2 | 0.36 | inactive
OR2H2 | 1.17 | inactive
OR2H2 | 0.86 | inactive
MAGEA3 | 1.36 | inactive
MAGEA3 | 1.21 | inactive
MAGEA3 | 1.52 | inactive
MAGEA3 | 1.05 | inactive
RAB29 | -0.84 | inactive
RAB29 | -0.83 | inactive
RAB29 | -0.89 | inactive
RAB29 | -0.99 | inactive

Laid out differently: 6 of the entries above
gene knocked down,TNF reporter robust z-score,Outcome
MAGEA3,1.21,inactive
MAGEA3,1.52,inactive
MAGEA3,1.05,inactive
RAB29,-0.84,inactive
RAB29,-0.83,inactive
RAB29,-0.89,inactive

Further reagents:
gene knocked down | TNF reporter robust z-score | Outcome
GMPPB | 1.2 | inactive
GMPPB | 0.81 | inactive
GMPPB | 1.58 | inactive
GMPPB | 1 | inactive
DALRD3 | -0.33 | inactive
DALRD3 | -0.92 | inactive
DALRD3 | -0.74 | inactive
DALRD3 | 0.35 | inactive
PDYN | -0.15 | inactive
PDYN | 1.51 | inactive
PDYN | -0.83 | inactive
PDYN | 0.8 | inactive
SYT14P1 | 0.74 | inactive
SYT14P1 | 0.52 | inactive
SYT14P1 | -0.48 | inactive
SYT14P1 | -0.62 | inactive
PANK3 | 0.07 | inactive
PANK3 | 0.5 | inactive
PANK3 | 0.72 | inactive
ADAM8 | 1.24 | inactive
ADAM8 | -0.2 | inactive
ADAM8 | -0.41 | inactive
ADAM8 | 0.5 | inactive
PLEKHM3 | 0.37 | inactive
PLEKHM3 | 0.71 | inactive
PLEKHM3 | 0.19 | inactive
PLEKHM3 | 0.97 | inactive
PCDHA9 | -0.28 | inactive
PCDHA9 | 0.84 | inactive
PCDHA9 | 0.39 | inactive
PCDHA9 | -0.49 | inactive
C19orf44 | -0.63 | inactive
C19orf44 | -0.12 | inactive
C19orf44 | -0.32 | inactive
SPIN2A | – | inactive
